The other results are listed elsewhere or left out.
Compound: CCN(CCCOc1ccc2c(Nc3cc(CC(=O)Nc4cccc(F)c4)[nH]n3)ncnc2c1)CCOP(=O)(O)O [barasertib]
Assay: log2 fold change, soluble protein after heating vs DMSO (PISA); higher = thermal stabilisation; K562 cells, 10 uM, 30 min; active = over 0.2 and 3.5 SD of the protein, either way, in both replicates (recomputed)
Method in brief: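 Quantification of soluble protein used TMTpro 16plex LC-MS/MS, with channel sums equalised. Samples were the supernatant after 21,000xg for 90 min of pooled aliquots from K562 cells (2×10^6 cells/mL) treated with 10 μM compound for 30 min, heated for 3 min over 48°C-58°C, and extracted in PBS with 0.5% NP-40 at 4°C. Values, from duplicates, describe thermal stability against control samples on a log2 fold-change scale.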

Sequences of proteins named here, by UniProt entry; tags and fusion partners are left off. A change or cut given only in a name is not applied to a line headed by its entry.
UniProt P17028: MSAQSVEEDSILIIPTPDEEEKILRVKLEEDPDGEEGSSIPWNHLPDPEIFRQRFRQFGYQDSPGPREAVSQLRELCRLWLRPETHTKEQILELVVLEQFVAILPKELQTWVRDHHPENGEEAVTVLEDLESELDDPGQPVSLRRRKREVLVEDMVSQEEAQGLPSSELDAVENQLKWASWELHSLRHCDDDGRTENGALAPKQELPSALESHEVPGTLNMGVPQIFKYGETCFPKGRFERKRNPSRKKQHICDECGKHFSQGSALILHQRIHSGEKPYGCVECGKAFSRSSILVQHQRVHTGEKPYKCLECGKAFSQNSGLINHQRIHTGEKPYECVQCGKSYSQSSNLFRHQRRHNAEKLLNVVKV
UniProt P13010: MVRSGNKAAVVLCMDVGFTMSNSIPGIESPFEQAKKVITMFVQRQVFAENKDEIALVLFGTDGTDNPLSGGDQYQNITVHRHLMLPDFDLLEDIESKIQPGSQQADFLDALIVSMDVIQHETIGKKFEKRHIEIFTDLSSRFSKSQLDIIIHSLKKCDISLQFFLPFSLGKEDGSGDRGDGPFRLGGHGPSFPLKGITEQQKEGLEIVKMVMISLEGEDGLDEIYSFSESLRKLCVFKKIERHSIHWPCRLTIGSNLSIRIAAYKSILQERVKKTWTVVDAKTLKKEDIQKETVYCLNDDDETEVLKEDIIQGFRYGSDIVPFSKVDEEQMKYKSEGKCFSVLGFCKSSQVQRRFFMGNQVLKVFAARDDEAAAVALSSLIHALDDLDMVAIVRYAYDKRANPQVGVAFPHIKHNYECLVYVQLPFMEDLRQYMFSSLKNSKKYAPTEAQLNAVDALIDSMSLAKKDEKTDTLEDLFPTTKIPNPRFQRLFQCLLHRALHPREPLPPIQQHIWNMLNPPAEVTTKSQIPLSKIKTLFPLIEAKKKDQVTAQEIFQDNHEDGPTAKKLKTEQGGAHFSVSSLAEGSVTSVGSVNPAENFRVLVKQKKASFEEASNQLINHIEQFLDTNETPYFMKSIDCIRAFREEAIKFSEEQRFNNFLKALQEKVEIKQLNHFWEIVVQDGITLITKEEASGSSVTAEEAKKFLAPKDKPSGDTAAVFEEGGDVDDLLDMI
UniProt P54577: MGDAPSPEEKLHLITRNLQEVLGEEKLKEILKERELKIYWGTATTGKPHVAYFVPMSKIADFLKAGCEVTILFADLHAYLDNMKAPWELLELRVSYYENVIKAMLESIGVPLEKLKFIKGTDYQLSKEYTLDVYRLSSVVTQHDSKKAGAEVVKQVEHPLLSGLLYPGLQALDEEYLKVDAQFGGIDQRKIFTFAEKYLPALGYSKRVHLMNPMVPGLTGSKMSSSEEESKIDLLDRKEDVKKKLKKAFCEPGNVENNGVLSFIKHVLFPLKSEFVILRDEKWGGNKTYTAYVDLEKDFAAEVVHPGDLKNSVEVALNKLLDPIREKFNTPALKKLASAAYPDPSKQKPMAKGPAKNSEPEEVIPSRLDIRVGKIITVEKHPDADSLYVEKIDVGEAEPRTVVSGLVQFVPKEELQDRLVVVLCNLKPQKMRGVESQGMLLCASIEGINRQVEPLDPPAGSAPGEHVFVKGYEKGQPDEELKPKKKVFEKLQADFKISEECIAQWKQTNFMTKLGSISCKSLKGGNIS
UniProt O14980, whole entry, looked up: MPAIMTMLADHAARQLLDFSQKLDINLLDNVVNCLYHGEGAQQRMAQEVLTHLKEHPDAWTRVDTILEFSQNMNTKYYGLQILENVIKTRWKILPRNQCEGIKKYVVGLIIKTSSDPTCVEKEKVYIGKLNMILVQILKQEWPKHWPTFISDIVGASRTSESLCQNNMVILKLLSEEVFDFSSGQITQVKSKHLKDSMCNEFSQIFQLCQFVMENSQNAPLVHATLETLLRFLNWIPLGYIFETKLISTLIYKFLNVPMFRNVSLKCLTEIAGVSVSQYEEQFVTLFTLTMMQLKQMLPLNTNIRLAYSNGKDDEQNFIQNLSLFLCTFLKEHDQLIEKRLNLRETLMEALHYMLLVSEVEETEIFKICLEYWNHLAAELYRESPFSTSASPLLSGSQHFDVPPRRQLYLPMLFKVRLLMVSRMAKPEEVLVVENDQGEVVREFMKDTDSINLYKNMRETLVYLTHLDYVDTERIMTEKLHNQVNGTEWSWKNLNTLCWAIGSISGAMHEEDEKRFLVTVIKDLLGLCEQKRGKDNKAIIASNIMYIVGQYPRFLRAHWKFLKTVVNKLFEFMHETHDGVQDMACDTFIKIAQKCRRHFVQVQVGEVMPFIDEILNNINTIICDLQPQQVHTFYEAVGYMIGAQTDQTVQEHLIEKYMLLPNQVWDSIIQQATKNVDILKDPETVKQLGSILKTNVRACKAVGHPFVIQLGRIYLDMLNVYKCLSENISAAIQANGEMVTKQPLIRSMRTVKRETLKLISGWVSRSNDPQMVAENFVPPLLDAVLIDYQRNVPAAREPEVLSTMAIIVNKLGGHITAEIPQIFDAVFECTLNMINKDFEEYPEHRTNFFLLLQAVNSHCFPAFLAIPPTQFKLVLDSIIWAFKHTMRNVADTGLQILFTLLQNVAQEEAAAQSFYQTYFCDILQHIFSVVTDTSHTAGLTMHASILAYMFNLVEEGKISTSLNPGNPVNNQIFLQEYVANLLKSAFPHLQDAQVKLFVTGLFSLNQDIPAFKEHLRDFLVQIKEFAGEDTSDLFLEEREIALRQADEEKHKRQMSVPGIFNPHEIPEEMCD
UniProt Q7Z7L7: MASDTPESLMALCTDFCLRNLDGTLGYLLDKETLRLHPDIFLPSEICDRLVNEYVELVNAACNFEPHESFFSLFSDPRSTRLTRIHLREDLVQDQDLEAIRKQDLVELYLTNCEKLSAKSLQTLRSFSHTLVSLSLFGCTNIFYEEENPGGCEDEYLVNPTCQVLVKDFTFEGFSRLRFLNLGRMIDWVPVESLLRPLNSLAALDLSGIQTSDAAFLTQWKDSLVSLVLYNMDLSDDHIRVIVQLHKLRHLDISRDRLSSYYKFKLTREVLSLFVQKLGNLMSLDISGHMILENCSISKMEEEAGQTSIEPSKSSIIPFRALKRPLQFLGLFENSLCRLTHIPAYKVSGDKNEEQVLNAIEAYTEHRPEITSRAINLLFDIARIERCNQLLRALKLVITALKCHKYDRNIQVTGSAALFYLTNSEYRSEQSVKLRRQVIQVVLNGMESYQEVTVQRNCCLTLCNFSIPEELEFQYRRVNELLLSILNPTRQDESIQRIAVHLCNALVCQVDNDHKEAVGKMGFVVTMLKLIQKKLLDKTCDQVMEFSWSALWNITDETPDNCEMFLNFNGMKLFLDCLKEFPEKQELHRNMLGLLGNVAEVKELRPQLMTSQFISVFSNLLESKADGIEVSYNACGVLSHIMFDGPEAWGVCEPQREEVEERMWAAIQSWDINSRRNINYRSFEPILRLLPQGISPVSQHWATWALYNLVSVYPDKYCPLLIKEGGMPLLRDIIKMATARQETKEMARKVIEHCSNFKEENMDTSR
UniProt Q86VM9: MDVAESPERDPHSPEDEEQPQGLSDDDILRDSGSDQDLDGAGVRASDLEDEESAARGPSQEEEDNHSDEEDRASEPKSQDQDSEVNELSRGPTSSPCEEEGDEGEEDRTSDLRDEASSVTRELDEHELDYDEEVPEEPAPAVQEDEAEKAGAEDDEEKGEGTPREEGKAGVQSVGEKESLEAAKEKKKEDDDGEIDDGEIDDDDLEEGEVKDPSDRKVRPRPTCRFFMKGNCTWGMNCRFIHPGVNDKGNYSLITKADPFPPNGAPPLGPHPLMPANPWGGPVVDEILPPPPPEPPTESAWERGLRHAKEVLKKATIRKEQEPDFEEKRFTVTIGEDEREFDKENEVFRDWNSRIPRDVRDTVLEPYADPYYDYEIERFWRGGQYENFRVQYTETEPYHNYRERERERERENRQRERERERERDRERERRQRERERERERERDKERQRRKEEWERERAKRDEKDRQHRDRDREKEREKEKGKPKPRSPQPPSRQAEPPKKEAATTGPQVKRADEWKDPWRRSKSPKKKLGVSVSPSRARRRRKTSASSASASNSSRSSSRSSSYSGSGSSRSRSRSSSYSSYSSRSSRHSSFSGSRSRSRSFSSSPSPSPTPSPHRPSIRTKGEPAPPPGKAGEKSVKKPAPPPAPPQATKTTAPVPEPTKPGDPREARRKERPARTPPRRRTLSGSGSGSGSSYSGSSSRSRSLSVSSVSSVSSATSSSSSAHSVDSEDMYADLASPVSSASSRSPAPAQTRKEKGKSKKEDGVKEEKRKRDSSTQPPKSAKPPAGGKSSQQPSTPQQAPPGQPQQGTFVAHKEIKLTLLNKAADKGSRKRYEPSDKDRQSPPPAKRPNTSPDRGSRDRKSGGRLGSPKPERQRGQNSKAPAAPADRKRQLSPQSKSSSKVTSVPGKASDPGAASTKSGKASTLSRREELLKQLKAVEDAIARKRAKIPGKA
UniProt Q96QU8: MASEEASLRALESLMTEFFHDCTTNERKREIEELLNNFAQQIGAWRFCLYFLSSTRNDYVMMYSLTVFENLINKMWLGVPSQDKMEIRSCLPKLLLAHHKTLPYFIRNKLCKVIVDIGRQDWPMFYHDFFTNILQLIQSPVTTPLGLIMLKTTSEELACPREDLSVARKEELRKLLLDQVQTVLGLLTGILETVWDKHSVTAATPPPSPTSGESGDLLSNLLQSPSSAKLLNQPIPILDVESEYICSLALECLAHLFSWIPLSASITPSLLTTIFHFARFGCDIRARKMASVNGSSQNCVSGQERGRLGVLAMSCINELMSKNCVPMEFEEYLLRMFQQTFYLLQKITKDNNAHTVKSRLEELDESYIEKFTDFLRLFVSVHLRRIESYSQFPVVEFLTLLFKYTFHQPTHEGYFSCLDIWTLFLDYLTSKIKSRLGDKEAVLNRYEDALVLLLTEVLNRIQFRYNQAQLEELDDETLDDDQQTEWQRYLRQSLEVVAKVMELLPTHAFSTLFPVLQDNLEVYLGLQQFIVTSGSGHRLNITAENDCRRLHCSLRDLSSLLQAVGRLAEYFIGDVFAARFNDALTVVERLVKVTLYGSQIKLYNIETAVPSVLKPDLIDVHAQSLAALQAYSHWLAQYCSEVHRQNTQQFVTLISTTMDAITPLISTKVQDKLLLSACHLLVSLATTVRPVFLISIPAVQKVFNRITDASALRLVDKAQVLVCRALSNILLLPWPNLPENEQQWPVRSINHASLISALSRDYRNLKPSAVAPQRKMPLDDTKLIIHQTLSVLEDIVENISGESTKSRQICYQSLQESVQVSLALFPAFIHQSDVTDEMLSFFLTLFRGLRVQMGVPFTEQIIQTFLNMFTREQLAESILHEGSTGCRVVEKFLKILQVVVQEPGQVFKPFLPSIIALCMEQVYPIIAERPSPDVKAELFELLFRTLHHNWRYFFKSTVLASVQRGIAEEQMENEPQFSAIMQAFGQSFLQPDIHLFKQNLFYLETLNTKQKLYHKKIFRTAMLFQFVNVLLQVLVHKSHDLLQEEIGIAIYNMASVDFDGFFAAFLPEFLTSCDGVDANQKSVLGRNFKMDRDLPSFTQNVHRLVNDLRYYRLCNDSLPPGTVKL
UniProt Q9C0B5: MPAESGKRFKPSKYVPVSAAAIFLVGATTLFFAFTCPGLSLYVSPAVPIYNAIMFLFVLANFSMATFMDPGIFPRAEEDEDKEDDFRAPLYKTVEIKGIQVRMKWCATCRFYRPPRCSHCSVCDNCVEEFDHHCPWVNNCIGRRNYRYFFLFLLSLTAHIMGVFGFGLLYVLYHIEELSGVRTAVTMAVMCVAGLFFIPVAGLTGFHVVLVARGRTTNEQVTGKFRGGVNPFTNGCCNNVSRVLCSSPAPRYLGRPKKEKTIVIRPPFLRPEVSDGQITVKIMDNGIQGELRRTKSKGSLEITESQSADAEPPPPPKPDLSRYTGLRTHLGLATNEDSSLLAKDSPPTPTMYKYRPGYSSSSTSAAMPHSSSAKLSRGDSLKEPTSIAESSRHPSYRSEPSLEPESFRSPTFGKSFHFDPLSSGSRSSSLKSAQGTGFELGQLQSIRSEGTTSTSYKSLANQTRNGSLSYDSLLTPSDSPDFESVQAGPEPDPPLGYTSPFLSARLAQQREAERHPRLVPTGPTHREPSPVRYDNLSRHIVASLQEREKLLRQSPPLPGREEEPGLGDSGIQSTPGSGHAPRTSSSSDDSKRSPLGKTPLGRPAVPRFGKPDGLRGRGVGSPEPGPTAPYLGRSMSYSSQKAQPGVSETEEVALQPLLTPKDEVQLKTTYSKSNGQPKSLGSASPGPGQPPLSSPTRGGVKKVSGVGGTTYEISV
UniProt Q8N5P1: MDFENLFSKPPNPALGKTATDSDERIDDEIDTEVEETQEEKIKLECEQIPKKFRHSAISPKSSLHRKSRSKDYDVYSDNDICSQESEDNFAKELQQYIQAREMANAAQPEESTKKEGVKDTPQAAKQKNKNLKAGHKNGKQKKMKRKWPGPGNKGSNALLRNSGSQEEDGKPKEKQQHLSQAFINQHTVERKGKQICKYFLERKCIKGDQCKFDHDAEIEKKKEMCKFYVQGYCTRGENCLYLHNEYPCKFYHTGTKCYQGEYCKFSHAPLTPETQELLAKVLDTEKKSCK

log2 fold change, inactive:
YJU2 (UniProt Q9BW85) 0
ZFAND5 (UniProt O76080) -0.013
ZNF24 (UniProt P17028) 0.022
ZFPL1 (UniProt O95159) -0.032
ZMYM3 (UniProt Q14202) -0.076
XRCC5 (UniProt P13010) 0.143
ZMAT2 (UniProt Q96NC0) -0.047
YARS (UniProt P54577) 0.048
YIPF4 (UniProt Q9BSR8) 0.026
ZFP91 (UniProt Q96JP5) -0.105
XRCC6 (UniProt P12956) 0.086
YY1 (UniProt P25490) -0.01
ZFYVE9 (UniProt O95405) 0.105
XPNPEP3 (UniProt Q9NQH7) -0.016
ZFAND2B (UniProt Q8WV99) -0.076
ZDHHC17 (UniProt Q8IUH5) 0.067
YWHAB (UniProt P31946) 0.003
XPO1 (UniProt O14980) 0.039
ZNF143 (UniProt P52747) 0.01
YBX1 (UniProt P67809) -0.127
ZER1 (UniProt Q7Z7L7) 0.034
ZDHHC14 (UniProt Q8IZN3) 0.057
YWHAQ (UniProt P27348) 0.006
YAE1 (UniProt Q9NRH1) 0.097
ZC3HC1 (UniProt Q86WB0) 0.108
ZC3H18 (UniProt Q86VM9) -0.05
YOD1 (UniProt Q5VVQ6) 0.051
YIPF5 isoform 3 (UniProt Q969M3) -0.08
YIPF6 (UniProt Q96EC8) -0.041
XPO5 (UniProt Q9HAV4) 0.029
YWHAZ (UniProt P63104) -0.002
XPO6 (UniProt Q96QU8) -0.003
YLPM1 (UniProt P49750) 0.03
ZDHHC5 (UniProt Q9C0B5) -0.001
XPNPEP1 isoform 3 (UniProt Q9NQW7) 0.016
ZNF217 (UniProt O75362) 0.03
ZFAND6 (UniProt Q6FIF0) 0.04
ZC3H8 (UniProt Q8N5P1) -0.075
YBX3 isoform 2 (UniProt P16989) -0.03

No new results follow: entries from further up.
log2 fold change, inactive:
ZNF143 (UniProt P52747) 0.01
YBX1 (UniProt P67809) -0.127
